# In article PMC11168747:
# Target: T1, GST-tagged RAPSYN (expressed in HEK293T cells) (human) (UniProt Q13702)
# T1 sequence: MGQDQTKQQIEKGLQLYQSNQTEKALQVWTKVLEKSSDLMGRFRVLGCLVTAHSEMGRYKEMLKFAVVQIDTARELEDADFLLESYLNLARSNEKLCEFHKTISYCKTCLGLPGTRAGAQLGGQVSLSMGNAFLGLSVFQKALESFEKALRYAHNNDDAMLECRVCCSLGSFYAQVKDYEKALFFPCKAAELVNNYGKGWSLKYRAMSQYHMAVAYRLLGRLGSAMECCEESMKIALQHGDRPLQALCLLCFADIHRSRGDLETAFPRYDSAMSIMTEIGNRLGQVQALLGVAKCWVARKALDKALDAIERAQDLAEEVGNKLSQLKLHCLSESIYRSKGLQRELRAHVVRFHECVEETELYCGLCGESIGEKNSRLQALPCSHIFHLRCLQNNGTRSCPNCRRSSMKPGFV
# Assay: co-IP; HEK293T cells transfected with His-tagged BCR-ABL (full-length or truncated) and GST-tagged RAPSYN; immunoprecipitation of His or GST, immunoblots of GST and His; NP-40 lysis buffer
substance,measurement,value
His-tagged truncated BCR-ABL Δ1 (aa 1–927) (human) (domain or fragment),binding,binds

# No constants are given. Whether binding was seen depends on the method and setting. Binding seen in cells or lysates may run through a third protein. Binding calls can cover weak binding; strength is not graded here. Sequences can lack the tags named with a protein.
